# Assay results: PubChem BioAssay AID504444 (National Center for Advancing Translational Sciences (NCATS), 2011)
# The campaign covered roughly 360,000 compounds. About 7,500 (2.1%) were called active. Inconclusive means that the source gave no clear call. Such entries were picked first, then a sample of the others. Calls follow the shape of the dose curve; as a rule, active = well fitted inhibition curve with a large enough effect; inconclusive = small, poorly fitted or top-dose-only effect, or effect the other way; inactive = flat fitted curve, though single readings scatter. Potencies beside an inconclusive call are fits to weak or partial responses and may not hold up.
# Assay: Nrf2 qHTS screen for inhibitors; also: nearly all actives have a fitted effect of over 60% in size
# Conditions: A549 ARE-Fluc reporter, luciferase luminescence, 18-24 h; series mostly up to 46 µM
# Procedure, shortened: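 Nrf2 function is reported as luminescence of an ARE-controlled luciferase in A549 cells. Compounds were tested at several concentrations, and a CellTiter-Fluor read on the same wells flagged cytotoxicity.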
# Potency is read from the fitted curve at half-maximal effect.
row,SMILES,Potency
1,O=C(O)CCCNc1c(C(=O)Nc2ccc(Cl)cc2)cc([N+](=O)[O-])cc1[N+](=O)[O-],"inconclusive: 5.17 µM [activator, partial curve]"
2,CCS(=O)(=O)c1ccc2oc(SCC(=O)NC3CCCC(C)C3C)nc2c1 (stereo not given),inactive
3,Nc1cnn(Cc2ccc(F)cc2)c1,"inconclusive: 0.0041 µM [falling, full curve, poor fit]"
4,Cc1ccc(-c2c(C3C4C=CCC(C)C4C(=O)N3Cc3ccccc3)ccc3ccccc23)cc1 (stereo not given),"inconclusive: 29.1 µM [falling, single point]"
5,COc1cc(S(=O)(=O)Nc2ccccc2C(=O)N2CCCCC2)ccc1NC(C)=O,"inconclusive: 3.26 µM [falling, partial curve, poor fit]"
6,Cc1ccc(-c2noc(CCCC(=O)NC3CCCCC3)n2)cc1,"inconclusive: 29.1 µM [falling, single point]"
7,Cc1cccc(NCc2nc3ccccc3n2C)c1,"inconclusive: 23.1 µM [activator, partial curve, poor fit]"
8,COc1ccc(C)cc1NC(=O)c1ccc(CN2CCN(c3ccccc3)CC2)cc1,"inconclusive: 18.4 µM [activator, single point]"
9,CCN1CCN(c2oc(-c3ccc(COc4ccccc4C)o3)nc2C#N)CC1,"inconclusive: 16.4 µM [falling, partial curve]"
10,COc1cccc(CNC(=O)Cn2ncn3nc(-c4cccs4)cc3c2=O)c1,"inconclusive: 20.6 µM [falling, single point]"
11,Oc1c(C(Nc2ccccn2)c2ccccc2F)ccc2cccnc12 (stereo not given),"inconclusive: 5.8 µM [falling, full curve, poor fit]"
12,COc1ccc(/C=C/c2cc(C(F)(F)F)on2)cc1,"inconclusive: 29.1 µM [activator, single point]"
13,O=[N+]([O-])c1cc(-c2nnc(C34CC5CC(CC(C5)C3)C4)o2)cc([N+](=O)[O-])c1,"inconclusive: 29.1 µM [activator, partial curve, poor fit]"
14,NNC(=O)c1ccc(OCC2CC(c3ccc(Cl)cc3)=NO2)cc1 (stereo not given),"inconclusive: 29.1 µM [falling, single point]"
15,CN(c1ccc(C(=O)Nc2ccc(Cl)cn2)cc1)S(=O)(=O)c1ccccc1,"inconclusive: 18.4 µM [falling, partial curve]"
16,CN(C(=O)c1nn(C)c2c1CSc1ccccc1-2)c1ccccc1Cl,"inconclusive: 4.11 µM [activator, partial curve]"
17,CCn1cc2nc(SCc3ccccc3Cl)n(Cc3ccc(OC)cc3)c(=O)c2n1,"inconclusive: 25.9 µM [falling, single point]"
18,O=C(CSc1c2c(nc3ccccc13)CCC2)N1CCCC1,"inconclusive: 20.6 µM [activator, partial curve]"
19,O=C(CCS(=O)(=O)c1ccccc1)Nc1ccc2c(c1)OCO2,"inconclusive: 4.61 µM [activator, full curve]"
20,COc1ccc(-n2cc(CNCC3CC(=O)N(C4CC4)C3)c(-c3ccccc3Cl)n2)cc1 (stereo not given),"inconclusive: 13 µM [activator, partial curve, poor fit]"

# Gathered by group: those above containing fluorine (3)
row,SMILES,Potency
3,Nc1cnn(Cc2ccc(F)cc2)c1,"inconclusive: 0.0041 µM [falling, full curve, poor fit]"
11,Oc1c(C(Nc2ccccn2)c2ccccc2F)ccc2cccnc12 (stereo not given),"inconclusive: 5.8 µM [falling, full curve, poor fit]"
12,COc1ccc(/C=C/c2cc(C(F)(F)F)on2)cc1,"inconclusive: 29.1 µM [activator, single point]"

# Later entries

row,SMILES,Potency
1,COCCSc1nc(N)c(NC(=O)c2ccco2)c(=O)[nH]1,inactive
2,O=C(NNC(=O)c1cccs1)c1ccc(F)cc1,"inconclusive: 29.1 µM [activator, single point]"
3,CC(=O)Nc1ccc(S(=O)(=O)n2cnc3cc(C)c(C)cc32)cc1,"inconclusive: 18.4 µM [falling, single point]"
4,CCCN(CCC)CCCNC(=O)c1cc2c(=O)n(C)c3ccccc3c2s1,"inconclusive: 1.84 µM [activator, full curve]"
5,COc1ccccc1CNS(=O)(=O)c1ccc(N2CCCC2)cc1Br,"inconclusive: 29.1 µM [falling, single point]"
6,Cn1c(=O)cc(SCC(=O)Nc2ccc3c(c2)OCO3)c2ccccc21,"inconclusive: 20.6 µM [falling, single point]"
7,Cc1ccc2nc(-c3ccc(NC(=S)NCCC(C)C)cc3)sc2c1,"inconclusive: 3.26 µM [activator, partial curve]"
8,O=C(NCc1ccco1)C1CCN(C(=O)c2cc3sccc3n2Cc2ccc(Cl)cc2)CC1,"inconclusive: 25.9 µM [falling, partial curve, poor fit]"
9,COc1cccc(NC(=O)CCc2c(C)nn(-c3ccc(N4CCOCC4)nn3)c2C)c1,"inconclusive: 3.26 µM [activator, full curve]"
10,Cc1ccc2c(c1)/C(=C/c1ccccc1F)C(=O)N2,"inconclusive: 29.1 µM [falling, single point]"
11,Cc1ccc(-c2csc(NC(=O)CSc3nc(C)cc(=O)[nH]3)n2)cc1,"inconclusive: 9.2 µM [falling, partial curve, poor fit]"
12,O=C(NCCC1=CCCCC1)c1ccc2c(c1)sc1nc(-c3ccc(F)cc3)cn12,inactive
13,COc1ccc(S(=O)(=O)N2CCCCC2)cc1NC(=O)c1ccc2c(c1)OCO2,"inconclusive: 29.1 µM [falling, partial curve, poor fit]"
14,COc1ccccc1Nc1nc(NCCO)nc(N)c1[N+](=O)[O-],"inconclusive: 29.1 µM [falling, single point]"
15,CS(=O)(=O)c1ccc(C(=O)OCC(=O)NC(=O)NC2CCCCC2)cc1[N+](=O)[O-],"inconclusive: 29.1 µM [activator, single point]"
16,COc1ccc(-c2cc(C(=O)NN3CCOCC3)c3ccccc3n2)cc1OC,inactive
17,Cc1ccc(C)c(-c2cc(C(=O)NNC(=S)NCC(C)C)c3ccccc3n2)c1,"inconclusive: 16.4 µM [falling, partial curve]"
18,CCOC(=O)c1sc(Nc2nc3cc4c(cc3s2)OCO4)cc1C,inactive
19,CC(=O)c1ccc(N2CCN(C(=O)c3ccco3)CC2)c(F)c1,"inconclusive: 2.31 µM [activator, full curve]"
20,Cc1c(C)n(Cc2ccc(Cl)cc2)c2ccc(C(=O)NCCCN3CCOCC3)cc12,"inconclusive: 32.6 µM [falling, single point]"
